Measurements as given in PMC9266683.
Results are given in words; binding and its absence hold for the method and conditions named. Binding seen in cells or lysates may run through a third protein. Some entries that bind do so weakly or less than the wild type. Tags and fused reporters may be left off the sequences shown.

Amino acid sequences for entries named in this document (tags omitted).
UniProt O04539: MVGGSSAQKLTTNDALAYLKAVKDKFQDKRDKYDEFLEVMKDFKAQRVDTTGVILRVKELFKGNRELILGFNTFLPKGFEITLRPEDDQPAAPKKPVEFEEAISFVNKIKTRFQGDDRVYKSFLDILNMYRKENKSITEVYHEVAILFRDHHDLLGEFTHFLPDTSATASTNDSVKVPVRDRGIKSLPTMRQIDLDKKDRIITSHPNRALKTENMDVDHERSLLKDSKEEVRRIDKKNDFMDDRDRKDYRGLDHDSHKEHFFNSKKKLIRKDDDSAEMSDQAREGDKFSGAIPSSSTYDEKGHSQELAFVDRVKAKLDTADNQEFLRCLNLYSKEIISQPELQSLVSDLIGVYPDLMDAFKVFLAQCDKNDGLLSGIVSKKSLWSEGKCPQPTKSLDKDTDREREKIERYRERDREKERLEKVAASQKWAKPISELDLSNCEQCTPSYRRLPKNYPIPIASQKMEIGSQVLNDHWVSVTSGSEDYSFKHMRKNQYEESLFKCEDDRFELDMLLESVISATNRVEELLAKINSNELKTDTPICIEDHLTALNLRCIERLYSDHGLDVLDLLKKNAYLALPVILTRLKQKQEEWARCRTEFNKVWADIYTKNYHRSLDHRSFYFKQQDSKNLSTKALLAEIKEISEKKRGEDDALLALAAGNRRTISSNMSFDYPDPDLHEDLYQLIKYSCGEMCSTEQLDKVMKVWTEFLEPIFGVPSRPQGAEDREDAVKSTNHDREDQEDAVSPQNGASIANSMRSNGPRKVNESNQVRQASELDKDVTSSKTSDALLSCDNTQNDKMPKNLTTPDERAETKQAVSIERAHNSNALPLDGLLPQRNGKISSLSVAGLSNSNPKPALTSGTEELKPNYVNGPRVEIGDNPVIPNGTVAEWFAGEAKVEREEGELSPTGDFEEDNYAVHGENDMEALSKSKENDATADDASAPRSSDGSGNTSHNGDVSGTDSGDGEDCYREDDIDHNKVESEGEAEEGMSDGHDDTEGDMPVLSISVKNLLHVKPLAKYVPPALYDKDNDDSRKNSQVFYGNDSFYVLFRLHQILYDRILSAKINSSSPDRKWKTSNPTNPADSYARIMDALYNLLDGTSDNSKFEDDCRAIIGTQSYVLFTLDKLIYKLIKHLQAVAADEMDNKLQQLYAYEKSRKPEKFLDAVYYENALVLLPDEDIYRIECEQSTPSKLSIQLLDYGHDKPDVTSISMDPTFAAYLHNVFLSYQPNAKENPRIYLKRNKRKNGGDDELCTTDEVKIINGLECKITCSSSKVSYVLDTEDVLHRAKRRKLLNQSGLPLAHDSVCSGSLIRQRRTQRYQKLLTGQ
UniProt Q9XIE1: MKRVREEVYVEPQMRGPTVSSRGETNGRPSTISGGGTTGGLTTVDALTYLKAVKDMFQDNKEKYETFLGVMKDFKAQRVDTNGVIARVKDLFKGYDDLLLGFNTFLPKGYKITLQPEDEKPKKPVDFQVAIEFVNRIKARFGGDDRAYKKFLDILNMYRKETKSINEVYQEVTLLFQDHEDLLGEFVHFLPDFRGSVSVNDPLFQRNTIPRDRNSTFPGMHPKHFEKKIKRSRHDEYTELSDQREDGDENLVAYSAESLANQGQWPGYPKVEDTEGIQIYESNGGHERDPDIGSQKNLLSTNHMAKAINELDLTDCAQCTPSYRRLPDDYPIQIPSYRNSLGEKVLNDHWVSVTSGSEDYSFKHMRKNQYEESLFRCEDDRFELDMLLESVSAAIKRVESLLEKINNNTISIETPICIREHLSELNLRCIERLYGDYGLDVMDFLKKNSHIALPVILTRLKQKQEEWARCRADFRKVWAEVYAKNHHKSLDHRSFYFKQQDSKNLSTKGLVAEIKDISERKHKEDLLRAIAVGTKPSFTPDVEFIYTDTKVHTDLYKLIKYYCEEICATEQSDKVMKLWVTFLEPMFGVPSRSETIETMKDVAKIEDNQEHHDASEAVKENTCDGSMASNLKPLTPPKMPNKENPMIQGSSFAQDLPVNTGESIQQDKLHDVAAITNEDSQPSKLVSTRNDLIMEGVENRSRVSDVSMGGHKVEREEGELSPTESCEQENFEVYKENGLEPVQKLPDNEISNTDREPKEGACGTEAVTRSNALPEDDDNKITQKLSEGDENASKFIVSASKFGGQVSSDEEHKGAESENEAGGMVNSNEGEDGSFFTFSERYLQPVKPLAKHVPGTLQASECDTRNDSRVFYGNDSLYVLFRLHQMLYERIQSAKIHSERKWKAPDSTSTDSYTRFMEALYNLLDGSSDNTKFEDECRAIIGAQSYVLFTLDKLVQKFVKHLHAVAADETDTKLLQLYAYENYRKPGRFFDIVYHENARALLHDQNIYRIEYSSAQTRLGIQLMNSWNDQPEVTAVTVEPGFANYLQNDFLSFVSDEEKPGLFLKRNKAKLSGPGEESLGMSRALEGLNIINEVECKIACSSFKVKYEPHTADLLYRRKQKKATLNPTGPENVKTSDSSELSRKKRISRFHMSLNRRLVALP
UniProt Q9XIK6: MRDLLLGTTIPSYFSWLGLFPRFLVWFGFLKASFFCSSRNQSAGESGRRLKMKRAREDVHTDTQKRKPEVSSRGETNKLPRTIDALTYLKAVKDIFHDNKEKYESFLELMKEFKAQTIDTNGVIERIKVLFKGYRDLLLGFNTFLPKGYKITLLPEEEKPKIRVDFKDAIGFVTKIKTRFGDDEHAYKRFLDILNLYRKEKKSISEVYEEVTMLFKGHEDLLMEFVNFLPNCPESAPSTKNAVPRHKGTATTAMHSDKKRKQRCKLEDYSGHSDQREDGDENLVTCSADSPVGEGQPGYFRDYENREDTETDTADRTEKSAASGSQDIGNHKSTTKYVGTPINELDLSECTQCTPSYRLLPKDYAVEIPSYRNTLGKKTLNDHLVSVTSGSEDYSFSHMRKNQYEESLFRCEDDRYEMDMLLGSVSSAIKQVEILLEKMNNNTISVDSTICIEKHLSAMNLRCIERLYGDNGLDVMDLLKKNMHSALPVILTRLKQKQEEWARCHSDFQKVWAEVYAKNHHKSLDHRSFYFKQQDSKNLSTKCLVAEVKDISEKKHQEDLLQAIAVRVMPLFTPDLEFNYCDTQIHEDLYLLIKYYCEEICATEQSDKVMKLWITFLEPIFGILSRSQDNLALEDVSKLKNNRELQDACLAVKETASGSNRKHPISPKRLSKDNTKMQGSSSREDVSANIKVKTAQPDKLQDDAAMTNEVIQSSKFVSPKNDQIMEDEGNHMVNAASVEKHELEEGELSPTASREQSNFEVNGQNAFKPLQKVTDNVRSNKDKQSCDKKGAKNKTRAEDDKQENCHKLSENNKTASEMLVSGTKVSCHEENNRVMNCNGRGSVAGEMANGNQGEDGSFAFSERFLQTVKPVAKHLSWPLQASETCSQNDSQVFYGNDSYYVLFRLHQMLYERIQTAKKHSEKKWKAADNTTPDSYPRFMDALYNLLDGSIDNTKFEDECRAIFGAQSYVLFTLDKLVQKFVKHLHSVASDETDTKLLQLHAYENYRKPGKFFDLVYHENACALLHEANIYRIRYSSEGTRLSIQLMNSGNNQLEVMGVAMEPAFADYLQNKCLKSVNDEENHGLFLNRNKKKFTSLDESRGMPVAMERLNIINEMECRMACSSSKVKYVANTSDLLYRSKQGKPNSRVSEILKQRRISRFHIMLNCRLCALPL
UniProt O48686: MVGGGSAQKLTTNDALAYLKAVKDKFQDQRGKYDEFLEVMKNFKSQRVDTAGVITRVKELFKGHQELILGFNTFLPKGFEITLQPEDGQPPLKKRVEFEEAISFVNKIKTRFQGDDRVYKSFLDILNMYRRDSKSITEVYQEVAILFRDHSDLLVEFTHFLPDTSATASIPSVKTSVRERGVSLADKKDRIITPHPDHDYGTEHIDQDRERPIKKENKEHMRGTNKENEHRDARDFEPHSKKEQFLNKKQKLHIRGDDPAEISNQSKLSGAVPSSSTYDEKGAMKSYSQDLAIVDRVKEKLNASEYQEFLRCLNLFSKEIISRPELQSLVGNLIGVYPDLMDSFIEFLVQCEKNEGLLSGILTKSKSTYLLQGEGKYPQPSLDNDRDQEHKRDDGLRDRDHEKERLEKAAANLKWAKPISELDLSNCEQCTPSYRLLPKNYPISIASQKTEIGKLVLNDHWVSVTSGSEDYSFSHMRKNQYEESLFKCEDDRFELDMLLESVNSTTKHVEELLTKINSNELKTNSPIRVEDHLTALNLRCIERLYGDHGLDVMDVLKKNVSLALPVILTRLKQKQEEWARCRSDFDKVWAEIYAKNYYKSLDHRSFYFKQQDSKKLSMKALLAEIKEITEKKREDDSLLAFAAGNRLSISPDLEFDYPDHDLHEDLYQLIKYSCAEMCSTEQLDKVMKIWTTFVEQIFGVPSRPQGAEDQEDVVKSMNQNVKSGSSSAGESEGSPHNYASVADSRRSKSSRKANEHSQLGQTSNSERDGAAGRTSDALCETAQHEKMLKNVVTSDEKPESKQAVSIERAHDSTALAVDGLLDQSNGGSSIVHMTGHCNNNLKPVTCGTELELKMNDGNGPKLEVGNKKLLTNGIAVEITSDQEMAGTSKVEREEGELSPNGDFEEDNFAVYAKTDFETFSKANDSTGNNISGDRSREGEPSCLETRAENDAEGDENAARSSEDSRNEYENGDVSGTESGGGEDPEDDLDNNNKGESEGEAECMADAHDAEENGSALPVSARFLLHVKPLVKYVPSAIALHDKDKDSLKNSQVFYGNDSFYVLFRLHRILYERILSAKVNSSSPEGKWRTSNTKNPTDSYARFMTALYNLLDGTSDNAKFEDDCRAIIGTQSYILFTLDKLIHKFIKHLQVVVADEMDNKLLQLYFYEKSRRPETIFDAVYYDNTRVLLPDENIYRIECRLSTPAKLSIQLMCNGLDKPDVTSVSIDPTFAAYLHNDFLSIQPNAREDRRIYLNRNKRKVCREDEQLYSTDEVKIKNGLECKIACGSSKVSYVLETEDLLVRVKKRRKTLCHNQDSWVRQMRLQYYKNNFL

How the values were obtained:
Test in all cases: co-IP; 35S::VAL1-FLAG and 35S::SNLs-HA co-expressed in N. benthamiana leaves; extract in 50 mM Tris-HCl pH 7.5, 150 mM NaCl, 0.1% Triton X-100; anti-HA magnetic beads overnight at 4 °C; blot with anti-FLAG
[1] = molecular target: SNL4-HA (35S::SNL4-HA), full length (Arabidopsis thaliana) (UniProt O04539)
[2] = molecular target: SNL5-HA (35S::SNL5-HA), full length (Arabidopsis thaliana) (UniProt Q9XIE1)
[3] = molecular target: T1, SNL1-HA (35S::SNL1-HA), full length (Arabidopsis thaliana) (UniProt Q9SRH9)
T1 sequence: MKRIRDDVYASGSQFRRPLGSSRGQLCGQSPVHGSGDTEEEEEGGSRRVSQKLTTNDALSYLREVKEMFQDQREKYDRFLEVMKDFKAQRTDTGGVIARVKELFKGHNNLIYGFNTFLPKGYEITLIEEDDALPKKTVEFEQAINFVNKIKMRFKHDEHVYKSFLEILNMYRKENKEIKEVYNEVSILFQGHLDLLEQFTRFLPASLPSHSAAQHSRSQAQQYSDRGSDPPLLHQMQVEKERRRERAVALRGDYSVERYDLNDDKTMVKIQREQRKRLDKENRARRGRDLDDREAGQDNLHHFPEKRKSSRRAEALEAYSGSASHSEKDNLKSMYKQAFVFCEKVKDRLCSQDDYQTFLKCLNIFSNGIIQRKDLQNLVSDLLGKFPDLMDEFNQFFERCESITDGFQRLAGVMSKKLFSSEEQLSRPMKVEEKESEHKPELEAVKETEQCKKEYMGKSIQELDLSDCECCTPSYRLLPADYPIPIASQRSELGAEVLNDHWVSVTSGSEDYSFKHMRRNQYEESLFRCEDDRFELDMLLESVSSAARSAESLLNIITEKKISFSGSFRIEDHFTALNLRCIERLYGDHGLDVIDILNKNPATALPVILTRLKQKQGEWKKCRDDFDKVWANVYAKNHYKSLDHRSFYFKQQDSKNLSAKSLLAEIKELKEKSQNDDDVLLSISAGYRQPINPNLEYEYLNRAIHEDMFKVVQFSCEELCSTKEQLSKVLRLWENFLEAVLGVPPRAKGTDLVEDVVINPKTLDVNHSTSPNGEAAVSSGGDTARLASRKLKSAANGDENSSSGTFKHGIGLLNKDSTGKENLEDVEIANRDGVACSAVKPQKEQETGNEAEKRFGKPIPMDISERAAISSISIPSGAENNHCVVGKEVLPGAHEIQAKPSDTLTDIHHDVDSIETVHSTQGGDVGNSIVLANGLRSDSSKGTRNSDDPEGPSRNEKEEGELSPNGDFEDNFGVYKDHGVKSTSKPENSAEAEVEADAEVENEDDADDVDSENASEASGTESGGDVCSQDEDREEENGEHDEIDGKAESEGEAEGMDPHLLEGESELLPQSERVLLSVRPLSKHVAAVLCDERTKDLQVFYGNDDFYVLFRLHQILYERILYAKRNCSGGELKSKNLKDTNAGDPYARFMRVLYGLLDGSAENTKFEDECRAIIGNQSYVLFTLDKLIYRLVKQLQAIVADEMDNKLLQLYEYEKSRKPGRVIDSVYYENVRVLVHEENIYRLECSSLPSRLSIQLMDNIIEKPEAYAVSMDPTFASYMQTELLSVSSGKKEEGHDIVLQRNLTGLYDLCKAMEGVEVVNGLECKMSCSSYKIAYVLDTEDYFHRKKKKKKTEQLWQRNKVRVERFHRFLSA

[4] = molecular target: T2, SNL2-HA (35S::SNL2-HA), full length (Arabidopsis thaliana) (UniProt Q9LFQ3)
T2 sequence: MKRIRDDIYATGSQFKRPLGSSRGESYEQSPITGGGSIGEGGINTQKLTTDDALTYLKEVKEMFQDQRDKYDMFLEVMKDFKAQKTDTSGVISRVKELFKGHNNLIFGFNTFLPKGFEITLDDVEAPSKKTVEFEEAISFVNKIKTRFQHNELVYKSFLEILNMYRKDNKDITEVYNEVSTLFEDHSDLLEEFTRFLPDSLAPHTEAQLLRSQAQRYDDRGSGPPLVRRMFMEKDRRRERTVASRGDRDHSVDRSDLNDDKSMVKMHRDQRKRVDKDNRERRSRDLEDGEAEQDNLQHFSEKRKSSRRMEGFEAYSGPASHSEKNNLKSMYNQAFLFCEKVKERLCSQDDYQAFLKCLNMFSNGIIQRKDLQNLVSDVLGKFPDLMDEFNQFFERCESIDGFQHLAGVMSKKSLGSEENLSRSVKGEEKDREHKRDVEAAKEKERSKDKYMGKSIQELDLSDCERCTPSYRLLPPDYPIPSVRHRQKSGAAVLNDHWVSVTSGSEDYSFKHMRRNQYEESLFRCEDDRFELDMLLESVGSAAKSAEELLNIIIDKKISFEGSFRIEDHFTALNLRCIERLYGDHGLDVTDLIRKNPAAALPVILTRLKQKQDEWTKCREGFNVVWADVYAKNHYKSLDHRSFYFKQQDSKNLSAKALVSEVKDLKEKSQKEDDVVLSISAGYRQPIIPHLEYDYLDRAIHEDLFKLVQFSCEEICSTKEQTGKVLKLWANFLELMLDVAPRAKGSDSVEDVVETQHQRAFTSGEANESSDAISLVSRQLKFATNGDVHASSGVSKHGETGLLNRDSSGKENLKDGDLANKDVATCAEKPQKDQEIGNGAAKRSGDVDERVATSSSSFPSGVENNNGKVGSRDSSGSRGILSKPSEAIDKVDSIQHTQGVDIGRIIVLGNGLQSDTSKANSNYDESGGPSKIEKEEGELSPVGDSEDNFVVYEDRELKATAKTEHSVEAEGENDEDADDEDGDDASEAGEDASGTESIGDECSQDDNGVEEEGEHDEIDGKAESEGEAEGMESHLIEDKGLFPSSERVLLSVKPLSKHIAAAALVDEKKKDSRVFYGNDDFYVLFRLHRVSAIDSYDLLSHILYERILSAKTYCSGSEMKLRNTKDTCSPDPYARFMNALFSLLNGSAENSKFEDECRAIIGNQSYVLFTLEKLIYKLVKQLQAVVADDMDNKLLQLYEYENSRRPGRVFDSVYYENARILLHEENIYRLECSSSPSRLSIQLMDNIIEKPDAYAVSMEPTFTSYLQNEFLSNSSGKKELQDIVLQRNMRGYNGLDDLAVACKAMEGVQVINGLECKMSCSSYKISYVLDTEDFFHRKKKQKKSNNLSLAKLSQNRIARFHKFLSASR

[5] = molecular target: SNL6-HA (35S::SNL6-HA), full length (Arabidopsis thaliana) (UniProt Q9XIK6)
[6] = molecular target: SNL3-HA (35S::SNL3-HA), full length (Arabidopsis thaliana) (UniProt O48686)

binding [1]: binds
binding [2]: binds
binding [3]: binds
binding [4]: binds
binding [5]: binds
binding [6]: binds
B1: VAL1-FLAG (35S::VAL1-FLAG), full length (protein, UniProt Q8W4L5 1-790)
chain: MFEVKMGSKMCMNASCGTTSTVEWKKGWPLRSGLLADLCYRCGSAYESSLFCEQFHKDQSGWRECYLCSKRLHCGCIASKVTIELMDYGGVGCSTCACCHQLNLNTRGENPGVFSRLPMKTLADRQHVNGESGGRNEGDLFSQPLVMGGDKREEFMPHRGFGKLMSPESTTTGHRLDAAGEMHESSPLQPSLNMGLAVNPFSPSFATEAVEGMKHISPSQSNMVHCSASNILQKPSRPAISTPPVASKSAQARIGRPPVEGRGRGHLLPRYWPKYTDKEVQQISGNLNLNIVPLFEKTLSASDAGRIGRLVLPKACAEAYFPPISQSEGIPLKIQDVRGREWTFQFRYWPNNNSRMYVLEGVTPCIQSMMLQAGDTVTFSRVDPGGKLIMGSRKAANAGDMQGCGLTNGTSTEDTSSSGVTENPPSINGSSCISLIPKELNGMPENLNSETNGGRIGDDPTRVKEKKRTRTIGAKNKRLLLHSEESMELRLTWEEAQDLLRPSPSVKPTIVVIEEQEIEEYDEPPVFGKRTIVTTKPSGEQERWATCDDCSKWRRLPVDALLSFKWTCIDNVWDVSRCSCSAPEESLKELENVLKVGREHKKRRTGESQAAKSQQEPCGLDALASAAVLGDTIGEPEVATTTRHPRHRAGCSCIVCIQPPSGKGRHKPTCGCTVCSTVKRRFKTLMMRRKKKQLERDVTAAEDKKKKDMELAESDKSKEEKEVNTARIDLNSDPYNKEDVEAVAVEKEESRKRAIGQCSGVVAQDASDVLGVTELEGEGKNVREEPRVSS
